Reference: PMC9915767
These are yes or no findings as the source states them, for the method shown. Binding seen in cells or lysates may run through a third protein. Some results given as binding are weak or reduced against the parent protein; the word gives no strength.

Chains of the proteins cited; added tags and fusions are not shown. Residues count along the entry.
UniProt P49582, residues 23-502: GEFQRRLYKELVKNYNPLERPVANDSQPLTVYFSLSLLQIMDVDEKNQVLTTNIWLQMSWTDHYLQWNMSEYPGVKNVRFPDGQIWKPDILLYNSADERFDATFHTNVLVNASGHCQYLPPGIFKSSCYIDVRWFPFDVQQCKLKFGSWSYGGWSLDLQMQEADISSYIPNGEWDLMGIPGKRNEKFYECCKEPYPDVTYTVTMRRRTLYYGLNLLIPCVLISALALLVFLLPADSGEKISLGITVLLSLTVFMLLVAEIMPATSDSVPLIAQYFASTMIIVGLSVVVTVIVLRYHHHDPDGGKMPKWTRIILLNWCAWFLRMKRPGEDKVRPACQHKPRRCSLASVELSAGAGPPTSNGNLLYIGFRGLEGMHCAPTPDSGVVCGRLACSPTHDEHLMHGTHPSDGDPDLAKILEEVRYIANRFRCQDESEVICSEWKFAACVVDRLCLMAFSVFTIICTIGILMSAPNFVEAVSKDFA

Molecular target: T1, lynx2 nicotinic receptor modulatory protein (mouse (endogenous in BLA tissue)) (UniProt Q8BLC3)
T1 sequence: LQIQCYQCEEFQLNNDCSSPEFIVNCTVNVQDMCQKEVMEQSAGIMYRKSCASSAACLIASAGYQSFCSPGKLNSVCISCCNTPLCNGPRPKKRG
Test: co-IP; BLA homogenate of WT mice (13 mg/ml) in Co-IP buffer (50 mM Tris, 150 mM NaCl, 0.75% Triton-X 100, protease inhibitors) incubated 3 days at RT with Dynabeads A carrying rabbit anti-lypd1 (lynx2) antibody; eluate blotted with anti-α7 nAChR subunit antibody; lynx2KO mice as negative control

α7 nicotinic acetylcholine receptor subunit (from UniProt P49582 23-502)
binding: binds
